Results reported in patent US20030220292A1, “Treatment of erectile dysfunction” (NexMed (Holdings), Inc., priority 2002, published 2003).
Structures can show the parent of a compound that is named as a salt. At least one structure is not confirmed: it was looked up by name or label, or the drawing left a doubt.

System: ED patients
Assay: Screening of ED patients with oral sildenafil citrate
Assay type: in vivo, human
Details: oral dose of 50 mg; thirteen screened ED patients

CCCc1nn(C)c2c(=O)[nH]c(-c3cc(S(=O)(=O)N4CCN(C)CC4)ccc3OCC)nc12 [sildenafil citrate]
erection after oral dose: full erection
